In PMC3460857:
These are yes or no findings as the source states them, for the method shown. In cells and extracts the contact can be indirect. For some assays here: Binding calls can cover weak binding; strength is not graded here.

Key:
[1] = target: ENTH domain only of LqfR fused to GFP (LqfR^ENTH-GFP) (Drosophila); assay: co-IP; GFP fusion precipitated from embryo extracts with GFP-trapA (Chromotek), 2 hrs at 4°C; lysis buffer 1% NP40, 0.5% deoxycholate, 1 mM DTT, 150 mM NaCl, 50 mM Tris pH 8.0; washes in lysis buffer and 500 mM NaCl; partners detected by Western blot
[2] = target: full-length LqfRa fused at its C-terminus to GFP (LqfRa^FL-GFP) (Drosophila); assay: as above

- binding [1]: no binding
- binding [2]: binds
B1: α-catenin (protein, UniProt P35220 1-917)
chain: MLKPDKMGTLTDFGQIALKWDPKNLEIRTMSVEKTLEPLVLQVTTLVNTKGPSKKKKGKSKRASALVAAVEKATENFIQKGEQIAYENPDITQEMLTAVDEVKKTGDAMSIAAREFSEDPCSSLKRGNMVRAARNLLSAVTRLLILADMVDVHLLLKSLHIVEDDLNKLKNASSQDELMDNMRQFGRNAGELIKQAAKRQQELKDPQLRDDLAAARAMLKKHSTMLLTASKVYVRHPELDLAKVNRDFILKQVCDAVNTISDVAQGKSSQPTDIYSGAGELAAALDDFDEGIVMDPMTYSEKRSRQLLEERLESIISAAALMADADCTRDERRERIVAECNAVRQALQDLLSEYMSNMSQKDNSPGLSRAIDQMCRKTRDLRRQLRKAVVDHVSDSFLETTTPLLDLIEAAKSGNEKKVREKSEIFTKHAEKLVEVANLVCSMSNNEDGVKMVRYAAAQIESLCPQVINAASILTVRPNSKVAQENMTTYRQAWEVQVRILTEAVDDITTIDDFLAVSENHILEDVNKCVMALQVGDARDLRATAGAIQGRSSRVCNVVEAEMDNYEPCIYTKRVLEAVKVLRDQVMMKFDQRVGAAVGALSNNSNKDVDENDFIDASRLVYDGVREIRRAVLMNRSSEDLDTDTEFEPVEDLTLETRSRSSAHTGDQTVDEYPDISGICTAREAMRKMTEEDKQKIAQQVELFRREKLTFDSEVAKWDDTGNDIIFLAKHMCMIMMEMTDFTRGRGPLKTTMDVINAAKKISEAGTKLDKLTREIAEQCPESSTKKDLLAYLQRIALYCHQIQITSKVKADVQNISGELIVSGLDSATSLIQAAKNLMNAVVLTVKYSYVASTKYTRQGTVSSPIVVWKMKAPEKKPLVRPEKPEEVRAKVRKGSQKKVQNPIHALSEFQSPADAV
